# Assay results as given in PubChem BioAssay AID2685 (National Center for Advancing Translational Sciences (NCATS), 2010).
# Hit rate of the full screen: of about 320,000 compounds, about 2,100 (0.66%) were called active. The inconclusive results got no clear call from the source; some entries with a clear call stand among them for comparison. The call rests on the fitted dose curve; in most records, active means well fitted inhibition curve with a large enough effect in the signal ratio, with a control signal flat (not every such curve was filed as active); inconclusive means small, poorly fitted or top-dose-only effect, or effect the other way, or a change in a side signal; inactive means flat fitted curve, though single readings scatter; the % refers to the signal ratio. Where the call is inconclusive, the potency comes from a doubtful curve fit.
# Assay: qHTS Assay for Lipid Storage Modulators in Drosophila S3 Cells
# Details: BODIPY lipid droplet fluorescence, 18-24 h, cells fed with added oleic acid; lipid storage change, negative = inhibition: at 46.1 µM (top of the series) unless noted
# In short: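 Drosophila S3 cells got compounds at several concentrations plus oleic acid (400 uM solution). Laser-scanning cytometry with 488 nm excitation read lipid droplets at 500-530 nm and cells at 575-640 nm. Percent activity was relative to 20 uM Triacsin C.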
# On the % scale 0 is the no-effect control and ±100 the full control effect; potency means the concentration at half of the fitted maximal effect.
Compound,"lipid storage change, negative = inhibition",Potency
CCN(CC)C(=O)Cn1c(C)c(/C=C/c2cc[n+](C)cc2)c2ccccc21,inconclusive: -177%,–
C1=C(C(c2nnnn2C2CCCCC2)N2CCCCC2)COc2ccccc21 (centres undefined),inconclusive: 93%,–
Cc1nc(C(=O)NNC(=O)Nc2ccccc2)cs1,–,"inconclusive: 29.1 µM [activator, single point]"
CN1CCN(C(=O)c2ccc(COc3ccc(C(C)(C)C)cc3)o2)CC1,inconclusive: -16.9%,–
COc1ccc(Cc2nnc(SCC(=O)c3ccc4c(c3)NC(=O)CO4)o2)cc1,inconclusive,–
Cc1cc(C)cc(NC(=O)C2CCCN(S(=O)(=O)c3c(C)noc3C)C2)c1 (centres undefined),–,"inconclusive: 23.1 µM [falling, single point]"
CC(NC(=O)[C@H](NC(=O)[C@@H]1Cc2ccccc2CN1)c1ccccc1)c1ccccc1 (some centres undefined),inconclusive: 35.6%,–
CCOc1ccc(-c2ccc(NS(=O)(=O)c3cc([N+](=O)[O-])c(C)c([N+](=O)[O-])c3)cc2)nn1,–,active: 23.1 µM
O=C(Nc1nc2ccccc2n1CCN1CCOCC1)c1cn(-c2ccccc2)nc1-c1ccccc1,–,"inconclusive: 1.46 µM [activator, partial curve]"
CCN(CC(=O)NCCCN1CCOCC1)S(=O)(=O)c1ccc(Cl)cc1,inconclusive: 245%,–
Cc1ccc(S(=O)(=O)Nc2cc(-c3ccccc3)nn2C)cc1,inconclusive: -11%,–
CC1CCCN(C(=O)COC(=O)c2cccc(NS(=O)(=O)c3ccccc3)c2)C1 (centres undefined),inconclusive: -31.4%,–
Cn1nnc(NC(=O)C(c2ccccc2)c2ccccc2)n1,inconclusive: 7.71%,–
CC(CC(=O)N1CCN(S(=O)(=O)c2ccccc2)CC1)n1cncn1 (centres undefined),–,"inconclusive: 29.1 µM [activator, single point]"
CN(C)CCCN(C(=O)c1cc(-c2cccs2)nc2ccccc12)c1nc2c(F)cccc2s1,–,"inconclusive: 4.11 µM [rising, full curve, poor fit]"
COc1cc([N+](=O)[O-])ccc1Nc1nc(C)cc(C)n1,–,"inconclusive: 6.51 µM [falling, single point]"
CCN(CC)C(=O)C1CCCN(Cc2ccccc2F)C1 (centres undefined),–,"inconclusive: 10.3 µM [falling, partial curve]"
CC[N+](CC)(CCCCS(=O)(=O)[O-])CCNP1(=O)C=C(c2ccccc2)OC(c2ccccc2)=C1,–,"inconclusive: 6.51 µM [falling, single point]"
Cc1nc(SCC(=O)NCc2ccco2)nc(C)c1C,inconclusive: 31.2%,–
Cc1cc(C)n(CC(O)Cn2c3ccc(Br)cc3c3cc(Br)ccc32)c(=O)n1 (centres undefined),inconclusive: -5%,–
O=C(CCN1C(=O)c2ccccc2C1=O)Nc1cccc(S(=O)(=O)NC2=NCCC2)c1,inconclusive: -0.143%,–
Cc1nn2c(-c3ccccc3)nnc2c2ccccc12,–,"inconclusive: 0.517 µM [activator, full curve]"
CC(C)c1ccc(S(=O)(=O)N2CCN(C(=O)[C@@H]3CCCN3C(=O)c3cccs3)CC2)cc1,inconclusive,–
CCOc1cc(/C=N/NC(=O)CN2CCCCC2)ccc1OCc1cccc(Cl)c1,–,"inconclusive: 14.6 µM [activator, single point]"
O=C(CSc1ccc([N+](=O)[O-])cn1)Nc1ccc(N2CCOCC2)c(Cl)c1,–,"inconclusive: 29.1 µM [falling, single point]"

# Single values from the list.
# Under lipid storage change, negative = inhibition, CC(NC(=O)[C@H](NC(=O)[C@@H]1Cc2ccccc2CN1)c1ccccc1)c1ccccc1 (some centres undefined) reads inconclusive: 35.6%
# Under Potency, CC(CC(=O)N1CCN(S(=O)(=O)c2ccccc2)CC1)n1cncn1 (centres undefined) reads inconclusive: 29.1 µM [activator, single point]

# (continued)

Compound,"lipid storage change, negative = inhibition",Potency
O=C(c1ccc2c(=O)n(CCc3ccccc3)c(=O)[nH]c2c1)N1CCN(c2ccc(F)cc2)CC1,–,"inconclusive: 29.1 µM [falling, single point]"
COc1cc(C2/C(=C(\O)c3ccc4c(c3)CC(C)O4)C(=O)C(=O)N2CC2CCCO2)cc(OC)c1OC (centres undefined),–,active: 1.3 µM
O=C(NCC(=O)N1CCCC1)c1ccc(Cl)cc1,inconclusive: 62.3%,–
O=c1c2ccccc2nnn1CCN1CCOCC1,inactive: -21.6%,–
COc1cc(-c2nc3c(c(C)nn3-c3ccccc3)c3cc(OC)c(OC)cc23)ccc1O,–,"inconclusive: 13 µM [falling, partial curve]"
CCOc1ccccc1NC(=O)Cn1cnc2c(cnn2-c2ccc(C)c(C)c2)c1=O,–,"inconclusive: 1.46 µM [activator, full curve, poor fit]"
CCOC(=O)C1=C(O)/C(=C/c2ccccn2)SC1=Nc1ccc(Cl)cc1,inconclusive: -27.4%,–
N#Cc1c(N)nc(N2CCCC2)c(C#N)c1-c1ccc(Cl)cc1,–,"inconclusive: 5.17 µM [activator, partial curve]"
O=C(CNC(=O)c1ccccc1Br)N/N=C\c1cc([N+](=O)[O-])cc(Br)c1O,inconclusive: 74.1%,–
CCOC(=O)CSc1nc2sc3c(c2c(=O)[nH]1)CCCC3,inconclusive: -22.6%,–
COc1ccc(N=CC2=C(O)c3ccccc3C2=O)c(OC)c1,inconclusive: -10.6%,–
O=C(O)C(=O)Cc1c[nH]c2ccccc12,–,"inconclusive: 10.3 µM [activator, partial curve]"
Cc1nnc(SCCn2c(N3CCC(Cc4ccccc4)CC3)nc3c2c(=O)[nH]c(=O)n3C)s1,inconclusive: -0.451%,–
CC(=O)c1cnc(Nc2nc(C)c3ccccc3n2)nc1C,–,"inconclusive: 13 µM [rising, partial curve, poor fit]"
O=C(Nc1ccc(N2CCOCC2)cc1)c1cc2c(s1)CCCCC2,inconclusive: 6.16% [at 9.22 µM],–
COc1ccc(CCNC(=O)C2=CC=CN3CCS(=O)(=O)N=C23)cc1,inconclusive: -22.2%,–
CCOC(=O)c1cccc(NC(=O)CSc2nnnn2C)c1,inconclusive: -27.9%,–
CC(C)CC1NC(=O)N(CC(=O)Nc2ccc3c(c2)OCCO3)C1=O (centres undefined),inconclusive: 9.43%,–
COc1ccccc1NC(=O)c1ccc(NC(=O)CSc2nc(N)cc(=O)[nH]2)cc1,inconclusive: -1.86%,–
CCOC(=O)Nc1ccc(S(=O)(=O)NC2CCCCC2)cc1,inconclusive: -0.191%,–
CCOc1[nH]n(-c2ccccc2)c(=O)c1C=Nc1ccc(C)cc1,inconclusive: 20.5%,–
COc1ccccc1-c1coc2c(CN3CCN(C)CC3)c(O)ccc2c1=O,inconclusive: -0.955%,–
CC(C)Sc1nnc(SCC(=O)N(C)C2CCS(=O)(=O)C2)s1 (centres undefined),–,"inconclusive: 6.51 µM [falling, single point]"
COc1ccc(C2c3[nH]c4ccccc4c3CCN2C(=O)c2cn3ccccc3n2)c(F)c1 (centres undefined),–,"inconclusive: 20.6 µM [falling, partial curve]"
CCC(Sc1nc(N)c(NC(=O)c2ccc(OC)c(OC)c2)c(=O)[nH]1)C(=O)OC (centres undefined),inconclusive: 6.19% [at 9.22 µM],–

# Record cards, from the list above:
# N#Cc1c(N)nc(N2CCCC2)c(C#N)c1-c1ccc(Cl)cc1 reads Potency: inconclusive: 5.17 µM [activator, partial curve]
# CC(C)CC1NC(=O)N(CC(=O)Nc2ccc3c(c2)OCCO3)C1=O (centres undefined) reads lipid storage change, negative = inhibition: inconclusive: 9.43%
# O=c1c2ccccc2nnn1CCN1CCOCC1 reads lipid storage change, negative = inhibition: inactive: -21.6%
# COc1ccc(N=CC2=C(O)c3ccccc3C2=O)c(OC)c1 reads lipid storage change, negative = inhibition: inconclusive: -10.6%

# Continued:

Compound,"lipid storage change, negative = inhibition",Potency
CCOC(=O)N1CCN(c2c(F)cc3[nH]c(=S)[nH]c3c2Br)CC1,inconclusive: 40.3%,–
CSc1ccc(/C=C/C(=O)c2ccc(O)cc2)cc1,–,"inconclusive: 29.1 µM [falling, single point]"
CCCCNC(=O)CSc1nc(O)cc(=O)n1C1CCCC1,inconclusive: -73.5%,–
Cc1ccc2nc(NC(=O)C3CCN(S(=O)(=O)c4cnc[nH]4)CC3)sc2c1,inconclusive: 16.2%,–
COc1ccc(C(=O)CSc2nnc(CNC(=O)c3ccco3)n2C)cc1OC,–,"inconclusive: 23.1 µM [activator, single point]"
CCCc1cc(-c2nc(-c3ccc(Br)cc3)cs2)ccn1,inconclusive: -60.8%,–
CCCCCN(C(=O)CCC(=O)OCC(=O)N(CC)c1ccccc1)c1c(N)n(CCCC)c(=O)[nH]c1=O,inconclusive,–
CCOc1cc(/C=C2\SC(N)=NC2=O)ccc1O,–,"inconclusive: 6.51 µM [falling, single point]"
COc1ccc(C(=O)N2CCC(O)(c3ccc(Cl)cc3)CC2)cc1OC,inconclusive: 35%,–
COc1cc2[nH]c(-c3ccc(C)cc3)cc(=O)c2cc1OC,inconclusive: -4.28%,–
COc1ccc(-c2nn(CCC#N)cc2C(=O)Nc2cccc(C(=O)O)c2)cc1OC,inconclusive: 19.9%,–
Cc1cc(NC(=O)Cn2nnc3sc4c(c3c2=O)CCCC4)no1,inconclusive: 17.9%,–
COc1ccc(-c2cc(=O)c3cc(C)ccc3[nH]2)cc1,–,"inconclusive: 16.4 µM [activator, single point]"
CS(=O)(=O)N(CC(=O)N1CCN(Cc2ccccc2)CC1)C1CCCCC1,inconclusive: -20.7%,–
O=C(NCCS(=O)(=O)N1CCN(c2ccccc2)CC1)c1ccco1,inconclusive: 36.3%,–
CCCCCC(=O)Nc1cccc(C2=NOC3(C2)C[C@H](C(N)=O)N(C(=O)c2ccccc2C(=O)c2ccccc2)C3)c1 (some centres undefined),inconclusive: -13.8%,–
Cc1ccc(OCC(=O)NCCCNC(=O)c2cccnc2)cc1,inconclusive: -141%,–
Cc1cc(C(=O)COC(=O)CC2Sc3ccccc3NC2=O)c(C)n1-c1ccc2c(c1)OCO2 (centres undefined),–,"inconclusive: 5.8 µM [activator, full curve]"
CCSc1ccc2nnc(-c3cccc(F)c3)n2n1,inconclusive: 32.7%,–
N#Cc1ccc(CN2C=NS(=O)(=O)c3ccccc32)cc1,inconclusive: -5.34%,–
COc1ccc(S(=O)(=O)N2CCC(C(=O)Oc3ccc(C)cc3)CC2)cc1OC,inconclusive: -4.55%,–
COc1cccc(/C=N\NC(=O)c2ccc(C)nc2)c1,inconclusive: 65.2%,–
OCCNCc1ccc(OC2CCCC2)cc1,inconclusive: -7.41%,–
C=CCn1c(SCCNC(C)=O)nc2cc(-c3ccccc3)sc2c1=O,–,"inconclusive: 0.184 µM [activator, full curve, poor fit]"
